{
  "source": "patent US20060074073A1",
  "about": "“Therapeutic combinations comprising poly (ADP-ribose) polymerases inhibitor” (AGOURON PHARMACEUTICALS, INC., priority 2004, published 2006)",
  "key": {"PARP [1]": {"system": "PARP", "assay": "PARP activity in peripheral blood lymphocytes of patients (monoclonal antibody assay)", "format": "in vivo, human", "conditions": "12 patients Phase 2 study, metastatic melanoma", "protocol": "(§1) Whole blood was collected into EDTA vacutainers and human PBLs were obtained by lymphopreparation according to the manufacturers instructions. Tumour biopsies were collected from the operating theatre in a sterile container and placed immediately on ice. Within 30 minutes tumour samples were snap frozen in liquid nitrogen and stored at −80° C. until homogenised for analysis. The specimen was defrosted on ice and the wet weight documented. […] Unless assayed on the day of homogenisation, samples were re-frozen to −80° C. and stored at this temperature until analysed. […]\nCultured cells or rapidly defrosted lymphocyte preparations were washed twice in ice cold PBS. […] The permeabilised (i.e. trypan blue stained) cell density was counted and the cell suspension was diluted if necessary with the above buffer to achieve a cell density that allowed 20,000 permeabilised cells to be added to each reaction tube. In the assay maximally stimulated PARP activity is measured by exposure to a blunt ended oligonucleotide in the presence of NAD^+ substrate, at 26° C. in an oscillating water bath. […] A purified PAR standard curve was loaded onto each membrane (0-25 pmol monomer equivalent) to allow quantification. […] The acquired image was analysed using Aida Image Analyser (version 3.28.001), and results expressed in LAU/mm^2. […]"}, "PARP [2]": {"system": "PARP", "assay": "PARP inhibition in tumor biopsies of patients", "format": "in vivo, human", "conditions": "tumor biopsy specimens; 12 patients Phase 2 study, metastatic melanoma", "protocol": "as §1\nTumour homogenates were assayed in a similar manner; however, the homogenisation process introduces sufficient DNA damage to maximally stimulate PARP activity and oligonucleotide was not therefore required. The protein concentration of the homogenate was measured using the BCA protein assay and Titertek Multiscan MCC/340 plate reader. […]\nA pharmacodynamic assay for PARP activity and inhibition uses monoclonal antibodies to measure the amount of PAR polymer that is formed under set conditions in permeabilized peripheral blood lymphocytes and homogenized tumor samples. The quantity of polymer formed can be used as a correlate for PARP activity, whereby decreasing polymer formation correlates with degree of PARP inhibition. […]"}},
  "note": "At least one compound was matched to its structure with a doubt left.",
  "data": [
    {"smiles": "Cn1nnc2c(C(N)=O)ncn2c1=O", "note": "[Temozolomide, reference compound]", "values": [
      {"measurement": "inhibition of PARP activity by single-agent temozolomide", "setting": "PARP [1]", "value": "did not inhibit PARP activity"},
      {"measurement": "inhibition of PARP activity by single-agent temozolomide", "setting": "PARP [2]", "value": "did not inhibit PARP activity"}
    ]}
  ]
}
